## Cleaved PARP in drug-treated melanoma cells

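Human melanoma cell lines in 1,536-well plates were treated with two drugs together for 72 h, then fixed, stained and imaged. Values are the share of nuclei positive for cleaved PARP as a percentage of the same share in the DMSO control: 100 is the control level, higher means more apoptosis. Every drug was used at one fixed concentration, the higher of two screened. The file gives one value for each pair and line, without errors, so small differences may be noise. Basal and induced levels differ widely between cell lines.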
An unselected part of the screen is shown.
A dash means that no value is listed here.

First drug in all entries: everolimus, 0.1 µM, CO[C@H]1C[C@@H]2CC[C@@H](C)[C@@](O)(O2)C(=O)C(=O)N2CCCC[C@H]2C(=O)O[C@H]([C@H](C)C[C@@H]2CC[C@@H](OCCO)[C@H](OC)C2)CC(=O)[C@H](C)/C=C(\C)[C@@H](O)[C@@H](OC)C(=O)[C@H](C)C[C@H](C)/C=C/C=C/C=C/1C

| # | Second drug | WM1745 | LB2518-MEL | COLO 800 | SK-MEL-5 | WM3526 | WM451Lu |
|---|---|---|---|---|---|---|---|
| 1 | Cn1cncc1[C@@](N)(c1ccc(Cl)cc1)c1ccc2c(c1)c(-c1cccc(Cl)c1)cc(=O)n2C at 0.05 µM | 121 | 156 | 179 | 409 | 184 | 152 |
| 2 | O=C(O)c1ccc2c(c1)nc(Nc1cccc(Cl)c1)c1ccncc12 at 2 µM | 107 | 168 | 45.6 | 357 | 442 | 120 |
| 3 | CC(C)C[C@H](NC(=O)[C@H](Cc1ccccc1)NC(=O)c1cnccn1)B(O)O at 0.005 µM | 568 | 9570 | 129 | 2780 | 1100 | 579 |
| 4 | COc1ccc(COc2ccc(Cc3cnc(N)nc3N)cc2OC)cc1 at 5 µM | - | 138 | 60.3 | 286 | 124 | 273 |
| 5 | CNC(=O)c1cc(Oc2ccc(NC(=O)Nc3ccc(Cl)c(C(F)(F)F)c3)cc2)ccn1 at 2 µM | 102 | 91.0 | 93.1 | 270 | 136 | 43.1 |
| 6 | COc1ccc(C2=N[C@@H](c3ccc(Cl)cc3)[C@@H](c3ccc(Cl)cc3)N2C(=O)N2CCNC(=O)C2)c(OC(C)C)c1 at 0.5 µM | 98.2 | 55.1 | 102 | 47.0 | 175 | 119 |
| 7 | C/C(O)=C(\C#N)C(=O)Nc1cc(Br)ccc1Br at 10 µM | - | 101 | 247 | 578 | 97.6 | 131 |
| 8 | NC(=O)c1ccc(N(C(N)=O)c2c(F)cccc2F)nc1-c1ccc(F)cc1F at 2 µM | 117 | - | 90.7 | 429 | 209 | 96.9 |
| 9 | C=CCn1c(=O)c2cnc(Nc3ccc(N4CCN(C)CC4)cc3)nc2n1-c1cccc(C(C)(C)O)n1 at 0.1 µM | 109 | 129 | 358 | 127 | 301 | 145 |
| 10 | C=CCNC1=C2C[C@@H](C)C[C@H](OC)[C@H](O)[C@@H](C)/C=C(\C)[C@H](OC(N)=O)[C@@H](OC)/C=C\C=C(/C)C(=O)NC(=CC1=O)C2=O at 0.01 µM | 229 | 134 | 57.0 | 301 | 633 | 289 |
| 11 | CN(NC(=O)CC(=O)NN(C)C(=S)c1ccccc1)C(=S)c1ccccc1 at 0.03 µM | 237 | 772 | 298 | 1140 | 184 | 132 |
| 12 | NC1(c2ccc(-c3nc4ccn5c(=O)[nH]nc5c4cc3-c3ccccc3)cc2)CCC1 at 2 µM | 129 | 403 | 50.7 | 322 | 511 | 233 |
| 13 | Cc1nc(Nc2ncc(C(=O)Nc3c(C)cccc3Cl)s2)cc(N2CCN(CCO)CC2)n1 at 0.02 µM | 165 | 53.8 | 57.0 | 429 | 86.9 | 103 |
| 14 | CC[C@]1(O)C[C@H]2CN(CCc3c([nH]c4ccccc34)[C@@](C(=O)OC)(c3cc4c(cc3OC)N(C=O)[C@H]3[C@@](O)(C(=O)OC)[C@H](OC(C)=O)[C@]5(CC)C=CCN6CC[C@]43[C@@H]65)C2)C1 at 0.0005 µM | 212 | 150 | 255 | 457 | 775 | 376 |
| 15 | Oc1cc(-c2nc(-c3ccccc3)[nH]c2-c2ccncc2)ccc1Cl at 1 µM | - | 74.4 | 152 | 211 | 378 | 312 |
| 16 | CN1CCN(c2ccc3nc(-c4c(N)c5c(F)cccc5[nH]c4=O)[nH]c3c2)CC1 at 0.5 µM | 146 | 90.1 | 161 | 315 | 416 | 171 |
| 17 | O=C(Nc1cc(C(F)(F)F)cc(C(F)(F)F)c1)c1cc(Cl)ccc1O at 0.08 µM | 110 | 173 | 99.5 | 415 | 265 | 96.9 |
| 18 | C[C@]12O[C@H](C[C@]1(O)CO)n1c3ccccc3c3c4c(c5c6ccccc6n2c5c31)CNC4=O at 0.02 µM | 98.8 | 219 | 90.3 | 477 | 289 | 52.3 |
| 19 | O=C1NC(=O)/C(=C/c2ccc(-c3ccc(F)cc3O)o2)S1 at 5 µM | - | 81.2 | 153 | 191 | 274 | 312 |
| 20 | COc1cc(Nc2ncc(F)c(Nc3ccc4c(n3)NC(=O)C(C)(C)O4)n2)cc(OC)c1OC at 2 µM | 190 | 141 | 155 | 67.0 | 150 | 135 |
| 21 | CCCCCCCCCCCCCCCCCCOP(=O)([O-])OC1CC[N+](C)(C)CC1 at 2 µM | 106 | - | 56.7 | 289 | 167 | 82.0 |

The last 2 entries again:

Second drug	WM1745	LB2518-MEL	COLO 800	SK-MEL-5	WM3526	WM451Lu
COc1cc(Nc2ncc(F)c(Nc3ccc4c(n3)NC(=O)C(C)(C)O4)n2)cc(OC)c1OC at 2 µM	190	141	155	67.0	150	135
CCCCCCCCCCCCCCCCCCOP(=O)([O-])OC1CC[N+](C)(C)CC1 at 2 µM	106	-	56.7	289	167	82.0

Source: doi:10.1371/journal.pone.0140310, primary screening data, rounded.